Data as given in PubChem BioAssay AID1259308 (NCATS, 2017)
This is an unselected part of about 59,000 reagents tested. About 1,510 of all reagents (2.6%) were called active. 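Calls use total luciferase alone and ignore viability, so some active siRNAs may act by altering cell number.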 Reagents against one gene are numbered here.

Aim: 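Genes whose loss raises luciferase production in HEK293 cells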 (primary screen)
Cell system: human HEK293 embryonic kidney cells stably expressing firefly luciferase (HEK-CMV-Luc2-Hygro)
Reagents: single siRNA against human genes, 0.8 pmol siRNA per well
Time to read-out: 72 h
Read-out: 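Luciferase light (ONE-Glo) measured on one replicate plate set and viability (CellTiter-Glo) on the other, scaled to a negative control siRNA, with robust z-scores and luciferase per cell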
Direction: total luciferase, z-score and total luciferase, % of control: higher = more reporter protein produced; luciferase per cell, z-score: higher = more reporter output per viable cell; viable cells, % of control: higher = more viable cells
Active means: 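An siRNA counts as active if its total luciferase robust z-score exceeds 3; genes with two or more such siRNAs out of three were retested with fresh siRNAs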
Calls: active = raised luciferase; inactive = no rise

no.	gene symbol	reagent	total luciferase, z-score	total luciferase, % of control	luciferase per cell, z-score	viable cells, % of control	outcome
1	KCNH4	1	0.0422	82.7	-0.0173	92.9	inactive
2	KCNH4	2	-0.593	70.1	-0.446	88.1	inactive
3	KCNH4	3	1.19	106	1.62	76.9	inactive
4	TBC1D22B	1	1.2	106	1.49	79.8	inactive
5	TBC1D22B	2	0.701	95.8	0.999	82.3	inactive
6	TBC1D22B	3	-1.3	56.1	-0.665	74.7	inactive
7	TDRD12	1	-0.554	70.9	0.298	73.2	inactive
8	TDRD12	2	0.525	92.3	1.24	74.5	inactive
9	TDRD12	3	-1.16	58.8	-0.665	78.2	inactive
10	DPH3	1	-0.0977	79.9	-0.551	103	inactive
11	DPH3	2	3.13	144	2.57	81.8	active
12	DPH3	3	-0.432	73.3	-0.17	85.7	inactive
13	RCAN1	1	1.56	113	1.2	91.9	inactive
14	RCAN1	2	0.306	88	-0.741	119	inactive
15	RCAN1	3	3.26	147	2.42	86.8	active
16	PCK1	1	1.23	106	0.524	103	inactive
17	PCK1	2	0.655	94.9	0.517	92.6	inactive
18	PCK1	3	-1.14	59.2	-0.874	83.3	inactive
19	PAQR8	1	0.982	101	2.69	55.8	inactive
20	PAQR8	2	1.11	104	0.845	93.1	inactive
21	PAQR8	3	-0.496	72	-0.132	83.3	inactive
22	LINC00290	1	-0.164	78.6	-0.583	102	inactive
23	LINC00290	2	2.02	122	1.42	93.9	inactive
24	LINC00290	3	0.389	89.6	0.557	86.5	inactive
25	TFAP2A	1	-1.6	50.1	-1.58	85.1	inactive
26	TFAP2A	2	0.648	94.8	1.12	78.8	inactive
27	TFAP2A	3	0.289	87.6	0.549	84.7	inactive
28	SIRPA	1	-0.977	62.5	-0.836	87	inactive
29	SIRPA	2	0.0457	82.8	0.447	82.2	inactive
30	SIRPA	3	-1.34	55.2	-1.11	82.6	inactive
31	DCPH1	1	1.65	115	0.775	104	inactive
32	DCPH1	2	1.07	103	1.19	84.3	inactive
33	DCPH1	3	2.18	125	1.67	90.1	inactive
34	EPC1	1	-0.195	78	-0.245	93	inactive
35	EPC1	2	1.4	110	1.2	89.6	inactive
36	EPC1	3	1.58	113	0.509	111	inactive
37	GON7	1	-0.192	78.1	-0.551	101	inactive
38	GON7	2	-0.422	73.5	-0.434	92.1	inactive
39	GON7	3	-1.19	58.3	-0.245	69.4	inactive
40	NKX6-1	1	0.182	85.5	0.0279	94.9	inactive
41	NKX6-1	2	-0.0401	81.1	-0.658	108	inactive
42	NKX6-1	3	-0.0222	81.4	1.41	62.8	inactive
43	LOC731075	1	2.41	130	2.69	71.4	inactive
44	LOC731075	2	-0.0381	81.1	0.522	79	inactive
45	LOC731075	3	0.53	92.4	0.42	92.5	inactive
46	DPF3	1	-0.351	74.9	-0.26	89.6	inactive
47	DPF3	2	-0.471	72.5	0.533	70.4	inactive
48	DPF3	3	-0.34	75.1	-0.677	100	inactive
49	TTF1	1	-0.171	78.5	-0.405	97.6	inactive
50	TTF1	2	1.4	110	1.62	80	inactive
51	TTF1	3	-1.01	61.8	-0.843	86.2	inactive
52	GID4	1	-1.27	56.7	-0.747	77.2	inactive
53	GID4	2	-2.4	34.2	-1.84	62	inactive
54	GID4	3	-2.58	30.7	-1.54	51.4	inactive
55	STK32A	1	0.238	86.6	-0.03	97.6	inactive
56	STK32A	2	0.174	85.3	0.786	77.5	inactive
57	STK32A	3	0.807	97.9	1.33	77.1	inactive
